Earlier results on one compound are cited in US20250281461A1 (The Board of Supervisors of Louisiana State University and …, priority 2021, published 2025).

What is called EC50 is the concentration that produces a half-maximal response.

The test system of the series is SARS-COV-2 virus. To be noted: read-out: EC50 for the inhibition of SARS-COV-2 virus; initial estimates; cited from earlier work.

With `Cc1ccc(NC(=O)c2ccc(CN3CCN(C)CC3)cc2)cc1Nc1nccc(-c2cccnc2)n1` [Imatinib], the 50% effective concentration (EC50) is approximately 2.5 µM.
